Reference: paper PMC9629621
These are yes or no findings as the source states them, for the method shown. In cells and extracts the contact can be indirect. Some entries that bind do so weakly or less than the wild type. For some assays here: Sequences can lack the tags named with a protein. One block for each substance: values may come before it.

Sequences of proteins named here, by UniProt entry; tags and fusion partners are left off. A change or cut given only in a name is not applied to a line headed by its entry.
UniProt P10591: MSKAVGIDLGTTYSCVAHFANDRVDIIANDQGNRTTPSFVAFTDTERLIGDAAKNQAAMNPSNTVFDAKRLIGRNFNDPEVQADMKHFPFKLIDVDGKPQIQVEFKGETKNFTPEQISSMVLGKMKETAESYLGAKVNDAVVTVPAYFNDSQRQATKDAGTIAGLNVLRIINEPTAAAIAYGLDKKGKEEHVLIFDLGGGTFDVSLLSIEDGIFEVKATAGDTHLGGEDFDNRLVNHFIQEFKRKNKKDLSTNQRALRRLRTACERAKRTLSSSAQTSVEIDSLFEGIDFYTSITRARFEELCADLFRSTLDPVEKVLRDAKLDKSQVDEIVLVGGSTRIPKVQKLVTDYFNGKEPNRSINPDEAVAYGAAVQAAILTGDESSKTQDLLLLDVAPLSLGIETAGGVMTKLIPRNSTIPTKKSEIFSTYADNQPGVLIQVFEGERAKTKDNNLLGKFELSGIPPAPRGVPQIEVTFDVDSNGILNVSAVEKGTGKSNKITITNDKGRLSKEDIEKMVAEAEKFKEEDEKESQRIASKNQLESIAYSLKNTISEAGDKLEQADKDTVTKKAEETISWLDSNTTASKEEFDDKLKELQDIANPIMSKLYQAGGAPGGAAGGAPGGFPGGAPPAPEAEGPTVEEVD
UniProt Q9H081: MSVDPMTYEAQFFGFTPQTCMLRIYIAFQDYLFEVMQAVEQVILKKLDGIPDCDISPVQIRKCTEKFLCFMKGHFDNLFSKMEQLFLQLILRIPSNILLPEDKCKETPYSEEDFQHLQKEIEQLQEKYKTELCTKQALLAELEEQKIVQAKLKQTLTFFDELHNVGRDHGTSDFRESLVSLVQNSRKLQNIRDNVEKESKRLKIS
UniProt P54198: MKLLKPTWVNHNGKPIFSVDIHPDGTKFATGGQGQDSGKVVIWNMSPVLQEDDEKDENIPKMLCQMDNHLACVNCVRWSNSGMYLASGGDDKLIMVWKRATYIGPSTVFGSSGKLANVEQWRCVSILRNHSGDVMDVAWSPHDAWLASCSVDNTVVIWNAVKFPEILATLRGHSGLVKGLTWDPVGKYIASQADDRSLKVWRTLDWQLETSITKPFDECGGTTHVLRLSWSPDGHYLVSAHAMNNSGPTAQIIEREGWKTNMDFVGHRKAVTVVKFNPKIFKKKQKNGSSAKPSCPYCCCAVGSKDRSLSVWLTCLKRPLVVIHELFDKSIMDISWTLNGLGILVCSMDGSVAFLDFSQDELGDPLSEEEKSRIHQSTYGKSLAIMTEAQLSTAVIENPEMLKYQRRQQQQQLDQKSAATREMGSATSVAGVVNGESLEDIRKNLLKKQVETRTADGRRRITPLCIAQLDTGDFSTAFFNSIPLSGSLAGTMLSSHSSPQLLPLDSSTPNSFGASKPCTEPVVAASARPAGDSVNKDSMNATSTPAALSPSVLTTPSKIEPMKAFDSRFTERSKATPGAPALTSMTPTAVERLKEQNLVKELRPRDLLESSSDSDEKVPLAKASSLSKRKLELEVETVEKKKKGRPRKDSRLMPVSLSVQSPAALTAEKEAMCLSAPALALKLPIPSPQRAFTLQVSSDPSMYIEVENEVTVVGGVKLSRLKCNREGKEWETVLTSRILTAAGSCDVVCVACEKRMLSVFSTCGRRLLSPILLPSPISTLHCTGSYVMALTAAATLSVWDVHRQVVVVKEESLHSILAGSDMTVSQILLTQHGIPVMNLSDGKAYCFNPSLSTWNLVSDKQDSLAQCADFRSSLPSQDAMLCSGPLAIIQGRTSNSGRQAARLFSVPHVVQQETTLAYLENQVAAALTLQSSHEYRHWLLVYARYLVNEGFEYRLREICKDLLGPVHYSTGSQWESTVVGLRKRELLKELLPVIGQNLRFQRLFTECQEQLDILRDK
UniProt P47079: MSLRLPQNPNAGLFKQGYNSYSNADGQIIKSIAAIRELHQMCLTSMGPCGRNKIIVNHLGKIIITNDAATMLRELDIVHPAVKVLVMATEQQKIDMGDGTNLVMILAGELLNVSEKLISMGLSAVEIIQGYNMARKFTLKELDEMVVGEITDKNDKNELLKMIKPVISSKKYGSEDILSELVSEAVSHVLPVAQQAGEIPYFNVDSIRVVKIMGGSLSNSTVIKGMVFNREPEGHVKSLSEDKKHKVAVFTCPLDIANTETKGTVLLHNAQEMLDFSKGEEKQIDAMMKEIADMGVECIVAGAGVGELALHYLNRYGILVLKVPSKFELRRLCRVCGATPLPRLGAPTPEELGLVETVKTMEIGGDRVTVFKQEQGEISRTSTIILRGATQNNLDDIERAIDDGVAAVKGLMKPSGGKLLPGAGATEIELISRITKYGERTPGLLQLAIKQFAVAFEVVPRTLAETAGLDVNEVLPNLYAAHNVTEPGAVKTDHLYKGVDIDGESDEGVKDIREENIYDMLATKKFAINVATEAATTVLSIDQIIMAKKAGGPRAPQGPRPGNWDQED
UniProt Q92598: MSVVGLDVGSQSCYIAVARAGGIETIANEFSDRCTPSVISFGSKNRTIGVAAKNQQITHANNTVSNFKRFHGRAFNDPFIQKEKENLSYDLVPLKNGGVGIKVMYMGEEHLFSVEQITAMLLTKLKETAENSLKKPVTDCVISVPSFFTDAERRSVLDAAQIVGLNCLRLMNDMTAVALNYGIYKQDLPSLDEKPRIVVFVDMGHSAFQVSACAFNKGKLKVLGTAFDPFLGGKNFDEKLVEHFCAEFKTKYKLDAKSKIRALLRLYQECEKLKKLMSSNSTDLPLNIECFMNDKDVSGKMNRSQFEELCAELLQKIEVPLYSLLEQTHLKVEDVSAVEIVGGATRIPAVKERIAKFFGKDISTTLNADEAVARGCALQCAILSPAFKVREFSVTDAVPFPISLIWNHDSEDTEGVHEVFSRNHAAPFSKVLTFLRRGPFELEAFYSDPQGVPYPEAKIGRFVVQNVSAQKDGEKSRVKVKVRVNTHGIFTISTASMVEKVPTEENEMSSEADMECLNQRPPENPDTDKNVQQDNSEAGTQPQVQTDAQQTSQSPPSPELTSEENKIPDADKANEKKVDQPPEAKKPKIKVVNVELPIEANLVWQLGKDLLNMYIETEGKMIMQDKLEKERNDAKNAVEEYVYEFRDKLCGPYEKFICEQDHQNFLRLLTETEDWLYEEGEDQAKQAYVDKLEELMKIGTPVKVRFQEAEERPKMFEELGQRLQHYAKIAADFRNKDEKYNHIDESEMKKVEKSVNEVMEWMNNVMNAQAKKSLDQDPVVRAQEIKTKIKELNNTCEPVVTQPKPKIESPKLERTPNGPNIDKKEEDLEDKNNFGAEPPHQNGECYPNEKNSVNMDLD
UniProt P11142: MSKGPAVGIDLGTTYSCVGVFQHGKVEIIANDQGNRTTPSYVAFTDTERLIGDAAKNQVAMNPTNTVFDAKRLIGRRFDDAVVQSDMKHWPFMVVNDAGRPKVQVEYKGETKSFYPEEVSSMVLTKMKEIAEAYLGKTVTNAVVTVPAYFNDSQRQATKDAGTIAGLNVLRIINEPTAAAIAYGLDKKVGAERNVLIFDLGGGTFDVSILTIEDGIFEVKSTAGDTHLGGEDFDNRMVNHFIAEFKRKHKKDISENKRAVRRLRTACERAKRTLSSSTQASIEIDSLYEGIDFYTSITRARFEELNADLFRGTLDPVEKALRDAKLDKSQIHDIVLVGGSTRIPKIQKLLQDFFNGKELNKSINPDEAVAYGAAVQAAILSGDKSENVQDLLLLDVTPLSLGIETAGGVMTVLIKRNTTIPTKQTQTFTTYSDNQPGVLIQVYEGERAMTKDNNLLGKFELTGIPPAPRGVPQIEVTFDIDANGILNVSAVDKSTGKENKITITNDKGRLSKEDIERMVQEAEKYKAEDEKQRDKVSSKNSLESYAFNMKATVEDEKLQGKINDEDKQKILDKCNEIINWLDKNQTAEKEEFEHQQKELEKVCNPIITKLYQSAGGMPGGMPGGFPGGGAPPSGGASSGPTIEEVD

Experiments:
[1] = biological target: HIS-tagged Ssa1 (yeast Hsp70) (S. cerevisiae) (UniProt P10591); experiment: cross-linking; XL-MS: about 150 ug of His-Ssa1 complex purified from yeast (His-Trap), cross-linked with 5 mM DSSO, room temperature, 1 h; trypsin digest, LC-MS with MS2/MS3; filtered for cross-linked peptides with at least one Ssa1 peptide
Mis12-GFP = Mis12-GFP (UniProt Q9H081); experiment: co-IP; HEK293 cells transfected with Mis12-GFP, 24 h; complexes isolated on GFP-TRAP beads; western blot
HA-HIRA (human) = HA-HIRA (human) (UniProt P54198); experiment: co-IP; HEK293 cells transfected with HA-HIRA, 24 h; complexes purified on HA-magnetic beads; western blot
FLAG-Lonp-1 = biological target: T1, FLAG-Lonp-1 (UniProt P36776); experiment: co-IP; HEK293 cells transfected with FLAG-Lonp-1, 24 h; complexes isolated on FLAG Dynabeads; western blot
T1 sequence: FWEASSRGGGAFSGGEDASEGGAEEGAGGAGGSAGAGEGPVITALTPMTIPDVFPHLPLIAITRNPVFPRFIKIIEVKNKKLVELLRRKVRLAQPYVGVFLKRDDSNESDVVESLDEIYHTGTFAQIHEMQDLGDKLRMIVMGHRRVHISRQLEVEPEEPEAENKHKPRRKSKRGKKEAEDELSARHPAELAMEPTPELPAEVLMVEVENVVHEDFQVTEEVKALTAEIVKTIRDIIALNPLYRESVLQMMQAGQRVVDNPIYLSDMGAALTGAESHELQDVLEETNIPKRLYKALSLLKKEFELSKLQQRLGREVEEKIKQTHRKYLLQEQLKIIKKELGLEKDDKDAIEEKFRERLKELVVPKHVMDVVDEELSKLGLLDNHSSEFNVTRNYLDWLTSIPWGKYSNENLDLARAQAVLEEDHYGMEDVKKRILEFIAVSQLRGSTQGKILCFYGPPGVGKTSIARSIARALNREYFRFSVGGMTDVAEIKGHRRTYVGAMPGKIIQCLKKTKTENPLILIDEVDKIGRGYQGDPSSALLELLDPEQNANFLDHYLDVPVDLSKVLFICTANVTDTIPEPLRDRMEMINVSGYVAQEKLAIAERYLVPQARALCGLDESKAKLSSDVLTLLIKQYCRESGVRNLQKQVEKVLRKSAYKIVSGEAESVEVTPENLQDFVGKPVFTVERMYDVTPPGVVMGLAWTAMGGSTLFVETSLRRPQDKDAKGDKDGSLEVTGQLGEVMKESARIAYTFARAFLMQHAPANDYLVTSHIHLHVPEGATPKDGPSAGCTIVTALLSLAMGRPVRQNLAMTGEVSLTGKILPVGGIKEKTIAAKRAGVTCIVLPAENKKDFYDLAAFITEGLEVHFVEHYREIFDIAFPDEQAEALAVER

[2] = biological target: Hir2 (immunoprecipitated from yeast) (S. cerevisiae) (UniProt P32480); experiment: co-IP; Co-IP of Hir1 and Hir2 from yeast followed by immunoblotting for chaperones (Fig 4C); beads and tag not told for this panel
[3] = biological target: Cct8 with an HA epitope tag at the carboxy terminus (S. cerevisiae) (UniProt P47079); experiment: co-IP; yeast extract (200 ug) on anti-HA magnetic beads, 4°C, 30 min; 50 mM Na-phosphate pH 8.0, 300 mM NaCl, 0.01% Tween-20; western blot
[4] = biological target: T2, Pcl7 with an HA epitope tag at the carboxy terminus (S. cerevisiae) (UniProt P40186); experiment: as above
T2 sequence: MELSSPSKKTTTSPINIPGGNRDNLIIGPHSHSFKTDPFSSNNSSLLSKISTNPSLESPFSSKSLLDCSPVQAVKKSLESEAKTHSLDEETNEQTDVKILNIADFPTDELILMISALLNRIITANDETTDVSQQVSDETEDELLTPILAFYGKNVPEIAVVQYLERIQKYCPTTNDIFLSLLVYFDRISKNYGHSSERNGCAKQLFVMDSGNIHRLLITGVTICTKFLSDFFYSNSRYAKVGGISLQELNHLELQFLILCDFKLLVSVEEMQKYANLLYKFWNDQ

[5] = biological target: T3, Sse1 with an HA epitope tag at the carboxy terminus (S. cerevisiae) (UniProt P32589); experiment: as above
T3 sequence: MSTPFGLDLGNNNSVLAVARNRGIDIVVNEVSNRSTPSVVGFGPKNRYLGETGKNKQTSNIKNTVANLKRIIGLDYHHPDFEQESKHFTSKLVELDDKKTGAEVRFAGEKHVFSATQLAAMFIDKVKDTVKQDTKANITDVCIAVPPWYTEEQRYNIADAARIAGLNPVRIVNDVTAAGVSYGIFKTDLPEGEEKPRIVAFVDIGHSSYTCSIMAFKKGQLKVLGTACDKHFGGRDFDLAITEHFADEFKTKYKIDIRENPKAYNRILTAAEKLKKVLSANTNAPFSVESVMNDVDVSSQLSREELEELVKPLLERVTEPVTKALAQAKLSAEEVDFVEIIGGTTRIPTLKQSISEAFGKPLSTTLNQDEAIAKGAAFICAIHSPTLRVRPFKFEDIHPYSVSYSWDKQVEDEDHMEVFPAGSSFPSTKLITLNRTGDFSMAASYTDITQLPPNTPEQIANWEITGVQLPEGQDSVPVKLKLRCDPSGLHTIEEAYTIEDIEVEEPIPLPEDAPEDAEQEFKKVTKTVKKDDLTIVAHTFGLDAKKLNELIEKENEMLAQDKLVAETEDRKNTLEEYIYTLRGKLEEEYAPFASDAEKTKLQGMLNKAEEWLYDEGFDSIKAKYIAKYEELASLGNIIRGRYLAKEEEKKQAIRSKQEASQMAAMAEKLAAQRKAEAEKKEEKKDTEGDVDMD

[6] = biological target: T4, Ura8 with an HA epitope tag at the carboxy terminus (S. cerevisiae) (UniProt P38627); experiment: as above
T4 sequence: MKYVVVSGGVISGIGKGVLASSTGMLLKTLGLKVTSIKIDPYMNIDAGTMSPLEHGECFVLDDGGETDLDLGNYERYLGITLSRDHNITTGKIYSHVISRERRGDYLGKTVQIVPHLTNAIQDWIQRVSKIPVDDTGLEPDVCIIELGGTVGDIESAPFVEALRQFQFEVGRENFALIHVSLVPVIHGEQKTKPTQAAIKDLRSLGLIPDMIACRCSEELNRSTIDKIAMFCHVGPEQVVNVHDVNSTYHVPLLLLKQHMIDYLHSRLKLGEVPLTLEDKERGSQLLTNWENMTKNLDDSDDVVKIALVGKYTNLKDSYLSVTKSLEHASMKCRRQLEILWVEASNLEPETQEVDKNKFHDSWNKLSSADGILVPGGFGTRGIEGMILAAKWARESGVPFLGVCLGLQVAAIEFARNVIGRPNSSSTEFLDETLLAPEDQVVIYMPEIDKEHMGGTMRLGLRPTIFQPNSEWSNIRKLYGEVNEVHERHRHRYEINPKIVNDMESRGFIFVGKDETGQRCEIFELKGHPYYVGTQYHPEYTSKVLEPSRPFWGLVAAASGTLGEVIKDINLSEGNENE

[7] = biological target: T5, Mtw1-FLAG (S. cerevisiae) (UniProt P39731); experiment: co-IP; yeast extract (200 ug) on anti-Flag M2 magnetic beads, 4°C overnight; 50 mM Na-phosphate pH 8.0, 300 mM NaCl, 0.01% Tween-20; eluted with 3x FLAG peptide; western blot
T5 sequence: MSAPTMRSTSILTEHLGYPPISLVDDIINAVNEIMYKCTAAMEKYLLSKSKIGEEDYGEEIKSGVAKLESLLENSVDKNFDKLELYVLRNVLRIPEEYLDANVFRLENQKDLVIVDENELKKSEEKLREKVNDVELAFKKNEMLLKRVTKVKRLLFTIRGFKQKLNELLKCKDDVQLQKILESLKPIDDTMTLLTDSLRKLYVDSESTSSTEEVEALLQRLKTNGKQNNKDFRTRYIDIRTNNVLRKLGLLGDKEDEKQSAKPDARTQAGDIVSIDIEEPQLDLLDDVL

[8] = biological target: FLAG-Ssa1 V435F (substrate-binding deficient mutant) (S. cerevisiae) (UniProt P10591); experiment: as above

binding (Mis12-GFP): binds | binding (HA-HIRA (human)): binds | binding (FLAG-Lonp-1): binds
Substance: DNAJA1 (from UniProt P31689 1-397)

binding (Mis12-GFP): binds | binding (HA-HIRA (human)): binds
Substance: Hsp110 (from UniProt Q92598 1-858)

binding [8]: binds
Substance: Ssa1 wild type, epitope-tagged (FLAG-Ssa1, GFP-Ssa1, HA-Ssa1) (from UniProt P10591 1-642)

The next lines start with the substance.

Substance: Cct8 (endogenous) (from UniProt P47079 1-568)
binding [1]: binds

Substance: Hir2 (endogenous, HIR complex component) (from UniProt P32480 1-875)
binding [1]: binds

Substance: Hsc70 (from UniProt P11142 1-646)
binding (Mis12-GFP): binds | binding (HA-HIRA (human)): binds | binding (FLAG-Lonp-1): binds

Substance: Hsp82 (from UniProt P02829 1-709)
binding [2]: binds | binding [3]: binds | binding [4]: binds | binding [5]: binds | binding [6]: binds | binding [7]: binds
